Measured values taken from the supplement of paper PMC10849652.
The other results are listed elsewhere or left out.

Protein sequences, listed by entry. Tags and fused reporters are not part of them. Lines headed by an entry give the natural chain unless they say otherwise; changes in a name come on top.
UniProt Q9NUN5: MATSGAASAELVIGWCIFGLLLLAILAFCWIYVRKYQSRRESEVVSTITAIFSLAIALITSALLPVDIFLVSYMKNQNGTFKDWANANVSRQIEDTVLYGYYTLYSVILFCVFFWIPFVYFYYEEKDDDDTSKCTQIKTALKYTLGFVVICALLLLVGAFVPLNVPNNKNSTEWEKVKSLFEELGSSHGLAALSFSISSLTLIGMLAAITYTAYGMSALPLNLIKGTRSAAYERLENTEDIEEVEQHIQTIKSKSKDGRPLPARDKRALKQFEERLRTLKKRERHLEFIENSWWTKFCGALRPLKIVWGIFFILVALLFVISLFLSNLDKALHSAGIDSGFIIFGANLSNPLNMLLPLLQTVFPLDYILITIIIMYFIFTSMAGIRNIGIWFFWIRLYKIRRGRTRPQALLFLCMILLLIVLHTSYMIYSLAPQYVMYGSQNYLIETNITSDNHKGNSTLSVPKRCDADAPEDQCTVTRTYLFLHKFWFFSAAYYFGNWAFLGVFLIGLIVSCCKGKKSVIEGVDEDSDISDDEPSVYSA
UniProt Q92604: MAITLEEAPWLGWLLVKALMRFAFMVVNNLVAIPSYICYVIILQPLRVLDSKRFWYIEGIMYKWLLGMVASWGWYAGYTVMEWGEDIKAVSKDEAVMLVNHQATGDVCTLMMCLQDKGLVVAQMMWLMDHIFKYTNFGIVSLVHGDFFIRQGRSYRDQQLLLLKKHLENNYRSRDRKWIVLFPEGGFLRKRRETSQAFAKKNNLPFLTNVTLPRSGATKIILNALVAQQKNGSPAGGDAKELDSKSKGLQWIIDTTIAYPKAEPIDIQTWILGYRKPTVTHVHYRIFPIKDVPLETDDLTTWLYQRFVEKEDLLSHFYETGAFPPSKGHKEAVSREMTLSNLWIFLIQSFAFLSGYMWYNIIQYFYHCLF
UniProt Q8NC56: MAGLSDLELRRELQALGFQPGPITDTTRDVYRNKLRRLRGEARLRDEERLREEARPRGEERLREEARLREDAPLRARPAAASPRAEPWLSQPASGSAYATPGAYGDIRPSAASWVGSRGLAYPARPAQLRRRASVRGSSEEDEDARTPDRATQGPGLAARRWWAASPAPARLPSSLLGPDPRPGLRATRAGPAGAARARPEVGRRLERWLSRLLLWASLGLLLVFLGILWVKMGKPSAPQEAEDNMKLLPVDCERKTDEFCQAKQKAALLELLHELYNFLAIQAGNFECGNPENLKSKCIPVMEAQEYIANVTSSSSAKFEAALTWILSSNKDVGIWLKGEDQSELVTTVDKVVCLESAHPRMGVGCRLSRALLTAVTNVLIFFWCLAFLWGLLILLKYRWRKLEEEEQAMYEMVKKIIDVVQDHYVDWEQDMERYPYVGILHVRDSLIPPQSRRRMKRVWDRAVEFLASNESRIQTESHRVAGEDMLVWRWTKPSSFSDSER
UniProt O43766: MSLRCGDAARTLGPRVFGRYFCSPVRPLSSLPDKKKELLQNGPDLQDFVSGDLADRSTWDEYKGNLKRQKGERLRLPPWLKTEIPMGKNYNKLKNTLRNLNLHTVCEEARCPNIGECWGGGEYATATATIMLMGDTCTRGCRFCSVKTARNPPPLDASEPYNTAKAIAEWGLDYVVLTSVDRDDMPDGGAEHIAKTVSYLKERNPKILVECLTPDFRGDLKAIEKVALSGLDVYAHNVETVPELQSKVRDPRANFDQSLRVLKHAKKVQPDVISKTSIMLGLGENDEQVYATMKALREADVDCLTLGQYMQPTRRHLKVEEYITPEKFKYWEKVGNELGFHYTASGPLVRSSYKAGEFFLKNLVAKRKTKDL
UniProt Q14693: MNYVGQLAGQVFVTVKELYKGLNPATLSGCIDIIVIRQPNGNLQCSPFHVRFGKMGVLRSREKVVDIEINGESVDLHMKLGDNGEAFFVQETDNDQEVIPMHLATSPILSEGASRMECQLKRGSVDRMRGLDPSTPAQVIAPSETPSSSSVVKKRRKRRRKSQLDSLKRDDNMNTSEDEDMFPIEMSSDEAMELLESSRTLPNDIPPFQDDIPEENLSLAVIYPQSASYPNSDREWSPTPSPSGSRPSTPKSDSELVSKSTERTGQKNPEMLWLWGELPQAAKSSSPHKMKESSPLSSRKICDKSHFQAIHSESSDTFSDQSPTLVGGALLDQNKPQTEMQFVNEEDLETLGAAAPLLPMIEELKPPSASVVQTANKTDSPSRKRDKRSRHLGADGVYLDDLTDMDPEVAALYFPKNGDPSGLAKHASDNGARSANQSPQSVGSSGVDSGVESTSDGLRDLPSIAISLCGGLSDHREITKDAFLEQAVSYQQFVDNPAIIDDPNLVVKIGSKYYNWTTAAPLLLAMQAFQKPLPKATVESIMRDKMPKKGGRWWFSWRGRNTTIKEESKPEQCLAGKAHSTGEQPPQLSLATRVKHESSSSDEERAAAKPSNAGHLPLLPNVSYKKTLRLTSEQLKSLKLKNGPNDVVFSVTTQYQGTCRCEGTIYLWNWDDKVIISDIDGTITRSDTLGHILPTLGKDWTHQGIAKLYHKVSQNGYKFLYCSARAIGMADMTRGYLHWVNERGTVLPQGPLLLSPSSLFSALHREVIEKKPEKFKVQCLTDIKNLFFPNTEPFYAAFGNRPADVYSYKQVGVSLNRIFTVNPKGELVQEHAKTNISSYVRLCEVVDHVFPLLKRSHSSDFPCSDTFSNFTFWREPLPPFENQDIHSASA
UniProt Q9GZZ8: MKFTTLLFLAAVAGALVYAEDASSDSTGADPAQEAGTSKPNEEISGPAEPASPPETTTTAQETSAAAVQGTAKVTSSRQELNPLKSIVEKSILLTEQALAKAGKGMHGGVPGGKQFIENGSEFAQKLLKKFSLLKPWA
UniProt Q9Y2U8: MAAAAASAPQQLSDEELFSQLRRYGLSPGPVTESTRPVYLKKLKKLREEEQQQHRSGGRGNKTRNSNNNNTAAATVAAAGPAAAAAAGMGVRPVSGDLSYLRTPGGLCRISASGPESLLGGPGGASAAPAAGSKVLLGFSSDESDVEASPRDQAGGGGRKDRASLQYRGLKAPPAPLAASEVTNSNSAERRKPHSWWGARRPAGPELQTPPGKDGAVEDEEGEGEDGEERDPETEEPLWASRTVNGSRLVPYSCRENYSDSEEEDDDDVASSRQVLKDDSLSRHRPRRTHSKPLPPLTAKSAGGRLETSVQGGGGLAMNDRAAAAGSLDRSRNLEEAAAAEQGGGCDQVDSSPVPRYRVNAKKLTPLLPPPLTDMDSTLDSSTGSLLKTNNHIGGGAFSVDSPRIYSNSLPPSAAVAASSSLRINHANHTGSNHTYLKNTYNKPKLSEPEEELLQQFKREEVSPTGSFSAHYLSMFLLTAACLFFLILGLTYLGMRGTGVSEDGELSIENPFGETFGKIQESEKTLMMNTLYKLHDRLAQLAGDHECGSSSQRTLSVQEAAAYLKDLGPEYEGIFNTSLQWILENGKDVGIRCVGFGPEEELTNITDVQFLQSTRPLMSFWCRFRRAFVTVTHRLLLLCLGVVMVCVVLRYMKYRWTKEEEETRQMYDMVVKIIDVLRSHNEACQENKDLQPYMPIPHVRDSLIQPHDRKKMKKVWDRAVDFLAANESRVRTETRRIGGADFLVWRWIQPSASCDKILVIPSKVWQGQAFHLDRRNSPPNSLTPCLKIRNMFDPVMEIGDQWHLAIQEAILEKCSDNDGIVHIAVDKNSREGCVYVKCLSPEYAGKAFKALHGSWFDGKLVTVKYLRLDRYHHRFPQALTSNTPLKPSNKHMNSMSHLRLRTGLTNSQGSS
UniProt Q03252: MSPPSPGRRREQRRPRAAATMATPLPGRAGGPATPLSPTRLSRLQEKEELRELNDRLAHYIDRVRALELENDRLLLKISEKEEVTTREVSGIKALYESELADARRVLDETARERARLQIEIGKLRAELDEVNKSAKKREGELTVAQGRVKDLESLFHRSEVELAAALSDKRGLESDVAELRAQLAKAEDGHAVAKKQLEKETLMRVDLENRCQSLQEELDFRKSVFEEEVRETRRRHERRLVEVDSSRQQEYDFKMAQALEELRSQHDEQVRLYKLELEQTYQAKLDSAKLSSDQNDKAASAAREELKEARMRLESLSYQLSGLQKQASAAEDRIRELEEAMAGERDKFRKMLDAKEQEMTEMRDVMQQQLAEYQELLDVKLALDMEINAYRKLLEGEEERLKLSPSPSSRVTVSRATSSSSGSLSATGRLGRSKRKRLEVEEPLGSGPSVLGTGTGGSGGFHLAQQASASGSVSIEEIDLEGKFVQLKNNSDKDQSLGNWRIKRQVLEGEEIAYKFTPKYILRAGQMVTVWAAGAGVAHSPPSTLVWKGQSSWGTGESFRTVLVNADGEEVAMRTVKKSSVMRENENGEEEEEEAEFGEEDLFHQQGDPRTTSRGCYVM
UniProt Q13094: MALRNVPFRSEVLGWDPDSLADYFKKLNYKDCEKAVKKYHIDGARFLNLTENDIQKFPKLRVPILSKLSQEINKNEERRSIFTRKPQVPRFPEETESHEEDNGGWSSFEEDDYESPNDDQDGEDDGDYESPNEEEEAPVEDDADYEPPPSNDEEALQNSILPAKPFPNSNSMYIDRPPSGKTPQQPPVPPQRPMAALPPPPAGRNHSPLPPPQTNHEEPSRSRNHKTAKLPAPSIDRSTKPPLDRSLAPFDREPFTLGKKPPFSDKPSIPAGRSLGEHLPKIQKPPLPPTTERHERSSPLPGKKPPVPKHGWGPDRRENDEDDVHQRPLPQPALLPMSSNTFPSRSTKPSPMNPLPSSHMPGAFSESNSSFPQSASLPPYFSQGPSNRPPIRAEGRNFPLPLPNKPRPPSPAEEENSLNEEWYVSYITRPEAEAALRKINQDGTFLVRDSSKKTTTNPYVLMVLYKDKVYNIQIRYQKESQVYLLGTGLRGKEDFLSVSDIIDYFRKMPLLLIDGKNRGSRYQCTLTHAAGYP
UniProt Q9C0E8: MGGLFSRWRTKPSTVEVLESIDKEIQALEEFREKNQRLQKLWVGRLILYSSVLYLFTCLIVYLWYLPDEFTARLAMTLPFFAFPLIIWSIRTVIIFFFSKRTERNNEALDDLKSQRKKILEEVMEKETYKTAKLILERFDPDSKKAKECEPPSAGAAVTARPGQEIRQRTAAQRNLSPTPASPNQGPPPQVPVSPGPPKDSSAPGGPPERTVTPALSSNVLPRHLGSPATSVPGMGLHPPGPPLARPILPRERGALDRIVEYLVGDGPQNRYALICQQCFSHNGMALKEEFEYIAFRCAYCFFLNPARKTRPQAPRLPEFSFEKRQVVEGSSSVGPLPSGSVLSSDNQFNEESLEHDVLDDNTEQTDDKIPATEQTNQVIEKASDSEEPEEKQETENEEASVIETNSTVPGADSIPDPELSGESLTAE
UniProt Q5TKA1: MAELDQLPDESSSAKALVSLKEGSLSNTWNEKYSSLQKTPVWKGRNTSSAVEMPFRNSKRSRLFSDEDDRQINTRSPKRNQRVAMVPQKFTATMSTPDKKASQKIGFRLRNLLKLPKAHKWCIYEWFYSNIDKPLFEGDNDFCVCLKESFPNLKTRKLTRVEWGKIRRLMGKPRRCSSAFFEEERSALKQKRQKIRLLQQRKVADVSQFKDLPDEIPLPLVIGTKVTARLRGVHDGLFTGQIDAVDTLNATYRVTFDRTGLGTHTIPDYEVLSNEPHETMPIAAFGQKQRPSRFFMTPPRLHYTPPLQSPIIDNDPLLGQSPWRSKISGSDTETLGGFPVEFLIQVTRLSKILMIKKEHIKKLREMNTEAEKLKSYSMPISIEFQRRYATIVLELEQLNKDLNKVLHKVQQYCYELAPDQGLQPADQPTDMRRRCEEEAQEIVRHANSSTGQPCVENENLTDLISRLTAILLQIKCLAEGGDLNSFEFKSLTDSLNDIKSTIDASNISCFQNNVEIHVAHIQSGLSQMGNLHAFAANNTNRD
UniProt Q92615, whole entry, looked up: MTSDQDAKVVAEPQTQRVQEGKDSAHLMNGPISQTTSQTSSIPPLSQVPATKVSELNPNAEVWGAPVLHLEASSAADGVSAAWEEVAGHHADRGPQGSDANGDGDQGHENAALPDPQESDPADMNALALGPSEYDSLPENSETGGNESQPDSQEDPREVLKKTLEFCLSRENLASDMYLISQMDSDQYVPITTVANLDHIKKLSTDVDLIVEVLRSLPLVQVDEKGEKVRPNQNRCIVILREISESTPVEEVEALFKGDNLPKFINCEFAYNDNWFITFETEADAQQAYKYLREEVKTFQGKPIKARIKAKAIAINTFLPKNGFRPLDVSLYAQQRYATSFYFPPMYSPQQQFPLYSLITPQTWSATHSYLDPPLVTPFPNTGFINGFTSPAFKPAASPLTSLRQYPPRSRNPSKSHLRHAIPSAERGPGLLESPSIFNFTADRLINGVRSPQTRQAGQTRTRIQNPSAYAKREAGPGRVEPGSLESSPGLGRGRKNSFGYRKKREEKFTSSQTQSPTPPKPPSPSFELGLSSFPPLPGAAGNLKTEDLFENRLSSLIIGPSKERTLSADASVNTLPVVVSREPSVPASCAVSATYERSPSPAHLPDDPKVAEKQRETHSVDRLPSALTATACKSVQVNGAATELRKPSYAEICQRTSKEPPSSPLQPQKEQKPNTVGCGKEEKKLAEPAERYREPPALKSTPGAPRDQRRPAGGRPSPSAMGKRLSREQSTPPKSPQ

Key:
Experiment in all cases: log2 fold change, soluble protein after heating vs DMSO (PISA); higher = thermal stabilisation; K562 cells, 10 uM, 30 min; active = over 0.2 and 3.5 SD of the protein, either way, in both replicates (recomputed)
[1] = compound: CS(=O)(=O)c1ccc(-c2cnc(N)c(C(=O)Nc3ccccc3)n2)cc1
Method in brief: (§1)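 K562 cells at 2×10^6 cells/mL were given 10 μM compound for 30 min. Aliquots then went through 3 min of heating across 48°C-58°C, were pooled, and were extracted in PBS with 0.5% NP-40 at 4°C, and the supernatant after 21,000xg for 90 min was quantified by TMTpro 16plex LC-MS/MS with channel sums equalised. Thermal stability relative to control samples, from duplicates, is given as log2 fold change.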

[2] = compound: C[C@@H]1COCCN1C2=NC(=NC(=C2)C3(CC3)S(=O)(=O)C)C4=C5C=CNC5=CC=C4
Method in brief: as §1

[3] = compound: C[C@H](C1=CC=C(C=C1)C(=O)NC2=C3C=CNC3=NC=C2)N
Method in brief: as §1

gandotinib = compound: Cc1cc(Nc2cc(CN3CCOCC3)c3nc(C)c(Cc4ccc(Cl)cc4F)n3n2)n[nH]1 [gandotinib]
Method in brief: as §1

[4] = compound: Cc1cc(SCc2sc(-c3ccc(C(F)(F)F)cc3)nc2C)ccc1OCC(=O)O
Method in brief: as §1

ispinesib = compound: Cc1ccc(C(=O)N(CCCN)[C@@H](c2nc3cc(Cl)ccc3c(=O)n2Cc2ccccc2)C(C)C)cc1 [ispinesib]
Method in brief: as §1

crizotinib = compound: C[C@@H](Oc1cc(-c2cnn(C3CCNCC3)c2)cnc1N)c1c(Cl)ccc(F)c1Cl [crizotinib]
Method in brief: as §1

doramapimod = compound: Cc1ccc(-n2nc(C(C)(C)C)cc2NC(=O)Nc2ccc(OCCN3CCOCC3)c3ccccc23)cc1 [doramapimod]
Method in brief: as §1

tozasertib = compound: Cc1cc(Nc2cc(N3CCN(C)CC3)nc(Sc3ccc(NC(=O)C4CC4)cc3)n2)n[nH]1 [tozasertib]
Method in brief: as §1

duvelisib = compound: C[C@H](Nc1ncnc2nc[nH]c12)c1cc2cccc(Cl)c2c(=O)n1-c1ccccc1 [duvelisib]
Method in brief: as §1

Measured: log2 fold change

LMBRD1 (UniProt Q9NUN5)
active: ispinesib -0.61
inactive: [1] -0.003 | [2] 0.111 | [3] -0.14 | gandotinib -0.137 | [4] -0.031

LPP (UniProt Q93052)
inactive: [1] 0.148 | crizotinib 0.175 | [2] 0.143 | doramapimod -0.206

LARP7 isoform 3 (UniProt Q4G0J3)
inactive: [1] -0.001 | crizotinib 0.022 | [2] 0.068 | [3] -0.077 | gandotinib -0.065 | [4] 0.088 | doramapimod 0.012 | ispinesib -0.007

LINS1 (UniProt Q8NG48)
inactive: [1] -0.01 | crizotinib -0.011 | [2] 0.169 | doramapimod -0.014 | ispinesib 0

LPGAT1 (UniProt Q92604)
inactive: [1] -0.01 | crizotinib -0.101 | [2] 0.073 | [3] 0.015 | [4] 0.16 | doramapimod -0.038 | ispinesib -0.237

LEMD2 (UniProt Q8NC56)
active: crizotinib -0.286 | ispinesib -0.438
inactive: [1] -0.001 | [2] 0.084 | [3] -0.057 | gandotinib -0.17 | [4] 0.109 | doramapimod 0.079

LIMK1 (UniProt P53667)
inactive: [1] -0.016 | crizotinib -0.039 | [2] 0.277 | tozasertib 0.061 | doramapimod 0.061

LIN28A (UniProt Q9H9Z2)
inactive: [1] 0.014 | [3] -0.324 | duvelisib 0.117 | gandotinib -0.026 | [4] -0.049

2 successive records out of the list so far, for reference:
LEMD2 (UniProt Q8NC56)
active: crizotinib -0.286 | ispinesib -0.438
inactive: [1] -0.001 | [2] 0.084 | [3] -0.057 | gandotinib -0.17 | [4] 0.109 | doramapimod 0.079

LIMK1 (UniProt P53667)
inactive: [1] -0.016 | crizotinib -0.039 | [2] 0.277 | tozasertib 0.061 | doramapimod 0.061

The list goes on.

LMBRD2 (UniProt Q68DH5)
active: ispinesib -0.328
inactive: [1] 0.034 | crizotinib -0.156 | [2] -0.042 | [3] -0.152 | gandotinib -0.049 | [4] -0.065 | doramapimod 0.011

LIAS (UniProt O43766)
inactive: [1] 0.035 | crizotinib 0.03 | [2] 0.039 | [3] 0.075 | gandotinib 0.086 | [4] -0.08 | doramapimod 0 | ispinesib -0.24

LRP6 (UniProt O75581)
inactive: [1] -0.106 | crizotinib -0.036 | [3] 0.066 | duvelisib 0.111 | gandotinib -0.007 | tozasertib -0.036 | [4] -0.071 | doramapimod -0.156

LRPPRC (UniProt P42704)
inactive: [1] 0.025 | crizotinib -0.822 | [2] 0.154 | [3] 0.065 | gandotinib -0.175 | [4] 0.481 | doramapimod -0.172 | ispinesib -0.416

LPIN1 isoform 7 (UniProt Q14693)
inactive: [1] 0 | crizotinib -0.184 | [2] -0.034 | [3] 0.031 | gandotinib -0.079 | [4] -0.043 | doramapimod 0.067 | ispinesib -0.037

LMF2 (UniProt Q9BU23)
inactive: [1] 0.039 | crizotinib 0.016 | [2] -0.05 | [3] 0.053 | gandotinib 0.023 | [4] 0.023 | doramapimod 0.046 | ispinesib -0.075

LACRT (UniProt Q9GZZ8)
inactive: [1] -0.095 | [2] 0.074 | [3] -0.231 | ispinesib 1.15

LEMD3 (UniProt Q9Y2U8)
inactive: [1] 0.072 | crizotinib -0.12 | [2] -0.084 | [3] -0.016 | gandotinib 0.006 | [4] 0.114 | doramapimod -0.002 | ispinesib -0.095

LMNB2 (UniProt Q03252)
inactive: [1] 0.007 | crizotinib 0.039 | [2] 0.179 | [3] 0.079 | gandotinib -0.003 | [4] 0.033 | doramapimod 0.019 | ispinesib 0.016

LENG8 (UniProt Q96PV6)
inactive: [1] 0.022 | crizotinib -0.342 | [2] 0.112 | [3] 0.107 | gandotinib -0.094 | [4] 0.055 | doramapimod 0.039 | ispinesib 0.241

LMBR1 isoform 3 (UniProt Q8WVP7)
inactive: [1] 0.086 | crizotinib -0.198 | [2] 0.019 | [3] -0.05 | [4] 0.04 | doramapimod 0.032 | ispinesib -0.477
active: gandotinib -0.812

LCP2 (UniProt Q13094)
inactive: [1] 0.006 | crizotinib -0.041 | [2] -0.007 | duvelisib 0.011 | gandotinib -0.203 | tozasertib -0.052 | [4] -0.017 | doramapimod -0.022 | ispinesib -0.104

LRCH4 (UniProt O75427)
inactive: [1] 0.019 | crizotinib -0.031 | [2] -0.078 | duvelisib -0.236 | gandotinib -0.01 | [4] 0.249 | doramapimod 0.176 | ispinesib -0.095

LRBA, A0A494BZW2
inactive: [1] 0.013 | crizotinib -0.053 | [2] 0.114 | [3] 0.104 | gandotinib 0.041 | [4] -0.004 | doramapimod 0.036 | ispinesib -0.182

L2HGDH (UniProt Q9H9P8)
inactive: [1] 0.04 | crizotinib -0.081 | [2] 0.124 | [3] -0.025 | gandotinib 0.024 | [4] 0.039 | doramapimod -0.02 | ispinesib -0.083

LETMD1 isoform 7 (UniProt Q6P1Q0)
inactive: [1] -0.093 | crizotinib 0.04 | [2] 0.061 | duvelisib 0.073 | gandotinib 0.041 | tozasertib -0.051 | [4] 0.033 | doramapimod 0.083 | ispinesib 0.078

LPL (UniProt P06858)
inactive: [1] 0.005 | crizotinib -0.03 | [3] 0.04 | duvelisib 0.049 | gandotinib 0.053 | tozasertib 0.041 | [4] -0.035 | doramapimod -0.021

LNPK (UniProt Q9C0E8)
inactive: [1] -0.016 | crizotinib 0.077 | [2] 0.007 | [3] -0.036 | gandotinib -0.022 | [4] -0.085 | doramapimod -0.044 | ispinesib 0.022

LRBA (UniProt P50851)
inactive: [1] 0.018 | crizotinib -0.054 | [2] 0.037 | [3] -0.005 | gandotinib -0.094 | [4] 0.011 | doramapimod 0.012 | ispinesib -0.078

LIN9 isoform 2 (UniProt Q5TKA1)
inactive: [1] 0.031 | crizotinib 0.061 | [2] 0.088 | [3] 0.115 | tozasertib -0.31 | doramapimod 0.105 | ispinesib -0.169

LDHC (UniProt P07864)
inactive: [1] 0.074 | [2] -0.059

LARP4B (UniProt Q92615)
inactive: [1] -0.066 | crizotinib -0.1 | [2] -0.121 | [3] 0.104 | gandotinib -0.029 | [4] 0.065 | doramapimod 0.048 | ispinesib -0.132
